Laboratory results: PMC8024676
No constants are given. Whether binding was seen depends on the method and setting. In cells and extracts the contact can be indirect. These calls come from enrichment with a bait or labelling near it, and not all partners need be listed.

Molecular target: Mauve-mCherry (Drosophila melanogaster)
Assay: affinity purification with mass spectrometry; Mv-mCherry isolated on RFP-Trap-MA beads from protein extracts of 1 g of 0-3 h embryos; Or-R embryos as control; two independent pull-downs

binding: binds
B1: Rab5 (protein, UniProt Q9V3I2 1-219)
chain: MATTPRSGGASGTGTAQRPNGTSQNKSCQFKLVLLGESAVGKSSLVLRFVKGQFHEYQESTIGAAFLTQTICIEDTVVKFEIWDTAGQERYHSLAPMYYRGAQAAIVVYDIQNQDSFQRAKTWVKELHKQASPNIVIALAGNKADLSNIRVVEFDEAKQYAEENGLLFMETSAKTGMNVNDIFLAIAKKLPKNDGANNQGTSIRPTGTETNRPTNNCCK
